# According to the supplement of paper PMC4635364:
# Counter-ions that a name gives are not always drawn. The list shows a part of the results. Single values are uncertain here, since repeats match poorly.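 ReNCell VM, a human fetal ventral-midbrain neural progenitor line, was differentiated without mitogens. Blinded raters scored images stained for doublecortin (early neurons) or tyrosine hydroxylase (dopaminergic neurons) against untreated wells (0 = no change). Scores were averaged across repeats and both raters, and compounds averaging 2 or more were selected as hits for retesting.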
# How the values were obtained:
# ReNCell VM [1] = experiment: neuronal differentiation score (DCX+ cell fraction vs untreated, manual image score) (score (-3 to 3)); higher = more neuronal differentiation; conditions: 2 uM, 2 weeks
# ReNCell VM [2] = experiment: dopaminergic neuron differentiation score (TH+ cell fraction vs untreated, manual image score) (score (0 to 3)); higher = more TH+ dopaminergic neuron differentiation; conditions: 2 uM, 4 weeks, BDNF 10 ng/ml + GDNF 10 ng/ml
compound,measurement,setting,value
CC(C)[C@@H]1CC[C@@H](C)C[C@H]1OC(=O)c1ccccc1,neuronal differentiation score,ReNCell VM [1]; library: Spectrum,inactive: 0
same,dopaminergic neuron differentiation score,ReNCell VM [2]; library: Spectrum,inactive: 0
Cc1cc(C(C)(C)C)c(O)c(C)c1CC1=NCCN1,neuronal differentiation score,ReNCell VM [1]; library: Spectrum,inactive: 1
same,dopaminergic neuron differentiation score,ReNCell VM [2]; library: Spectrum,inactive: 0
C[C@H]1COc2c(C3(N)CC3)c(F)cc3c(=O)c(C(=O)O)cn1c23,neuronal differentiation score,ReNCell VM [1]; library: Spectrum,inactive: 0
same,dopaminergic neuron differentiation score,ReNCell VM [2]; library: Spectrum,inactive: 0
C#C[C@]1(O)CC[C@H]2[C@@H]3CCc4cc(OC)ccc4[C@H]3CC[C@@]21C,neuronal differentiation score,ReNCell VM [1]; library: Spectrum,inactive: 0
same,dopaminergic neuron differentiation score,ReNCell VM [2]; library: Spectrum,inactive: 0
N[C@@H](CC(=O)O)C(=O)O [L-Aspartic acid],neuronal differentiation score,ReNCell VM [1]; library: LOPAC,inactive: 0
same,dopaminergic neuron differentiation score,ReNCell VM [2]; library: LOPAC,inactive: 0
CCOC(=O)[C@H](CCc1ccccc1)N[C@@H](C)C(=O)N1Cc2ccccc2C[C@H]1C(=O)O [Quinapril HCl],neuronal differentiation score,ReNCell VM [1]; library: Prestwick,inactive: 0
same,dopaminergic neuron differentiation score,ReNCell VM [2]; library: Prestwick,inactive: 0
NCCCS(=O)(=O)O,neuronal differentiation score,ReNCell VM [1]; library: Spectrum,inactive: 0
same,dopaminergic neuron differentiation score,ReNCell VM [2]; library: Spectrum,inactive: 0
CC(=O)NCCCCCC(=O)O,neuronal differentiation score,ReNCell VM [1]; library: Spectrum,inactive: 0
same,dopaminergic neuron differentiation score,ReNCell VM [2]; library: Spectrum,inactive: 0
CO/N=C(\C(=O)N[C@@H]1C(=O)N2C(C(=O)O)=C(CSc3nnnn3C)CS[C@H]12)c1csc(N)n1,neuronal differentiation score,ReNCell VM [1]; library: Spectrum,inactive: 0
same,dopaminergic neuron differentiation score,ReNCell VM [2]; library: Spectrum,inactive: 0
CC1(C)[C@@H](OC(=O)CCC(=O)O)CC[C@]2(C)[C@H]3C(=O)C=C4[C@@H]5C[C@@](C)(C(=O)O)CC[C@]5(C)CC[C@@]4(C)[C@]3(C)CC[C@@H]12,neuronal differentiation score,ReNCell VM [1]; library: Spectrum,inactive: 0
same,dopaminergic neuron differentiation score,ReNCell VM [2]; library: Spectrum,inactive: 0
O=C(O)/C=C/c1ccc(O)c(O)c1,neuronal differentiation score,ReNCell VM [1]; library: Spectrum,inactive: 0
same,dopaminergic neuron differentiation score,ReNCell VM [2]; library: Spectrum,inactive: 0
Cc1cc(-n2c(=O)[nH]c(=O)n(C)c2=O)ccc1Oc1ccc(SC(F)(F)F)cc1 [Toltrazuril],neuronal differentiation score,ReNCell VM [1]; library: Prestwick,inactive: 0
same,dopaminergic neuron differentiation score,ReNCell VM [2]; library: Prestwick,inactive: 0
O=C(O)CN(CCN(CC(=O)O)CC(=O)O)CCN(CC(=O)O)CC(=O)O [Pentetic acid],neuronal differentiation score,ReNCell VM [1]; library: Prestwick,inactive: 0
same,dopaminergic neuron differentiation score,ReNCell VM [2]; library: Prestwick,inactive: 0
NS(=O)(=O)c1cc2c(cc1C(F)(F)F)NC(Cc1ccccc1)NS2(=O)=O (stereo not drawn) [Bendroflumethiazide],neuronal differentiation score,ReNCell VM [1]; library: Prestwick,inactive: 0
same,dopaminergic neuron differentiation score,ReNCell VM [2]; library: Prestwick,inactive: 0
CC(C(=O)O)c1ccc(C(=O)c2ccccc2)s1 (stereo not drawn) [Tiaprofenic acid],neuronal differentiation score,ReNCell VM [1]; library: Prestwick,inactive: 0
same,dopaminergic neuron differentiation score,ReNCell VM [2]; library: Prestwick,inactive: 0
"O=C(O)COc1ccc(OCCNC[C@H](O)COc2ccccc2)cc1 [ICI 215,001 hydrochloride]",neuronal differentiation score,ReNCell VM [1]; library: Tocriscreen,inactive: 0
same,dopaminergic neuron differentiation score,ReNCell VM [2]; library: Tocriscreen,inactive: 0
COc1ccc2c(c1OC)OC[C@@H](c1ccc(OC)c(OC)c1OC)C2,neuronal differentiation score,ReNCell VM [1]; library: Spectrum,inactive: 0
same,dopaminergic neuron differentiation score,ReNCell VM [2]; library: Spectrum,inactive: 0
COc1cccc(O)c1O,neuronal differentiation score,ReNCell VM [1]; library: Spectrum,inactive: 0
same,dopaminergic neuron differentiation score,ReNCell VM [2]; library: Spectrum,inactive: 0
C#C[C@]1(O)CC[C@H]2[C@@H]3CCc4cc(O)ccc4[C@H]3CC[C@@]21C [Ethinylestradiol],neuronal differentiation score,ReNCell VM [1]; library: Prestwick,inactive: 0
same,dopaminergic neuron differentiation score,ReNCell VM [2]; library: Prestwick,inactive: 0
CN[C@H](CC(C)C)C(=O)N[C@H]1C(=O)N[C@@H](CC(N)=O)C(=O)N[C@H]2C(=O)N[C@H]3C(=O)N[C@H](C(=O)N[C@H](C(=O)O)c4cc(O)cc(O)c4-c4cc3ccc4O)[C@H](O)c3ccc(c(Cl)c3)Oc3cc2cc(c3O[C@@H]2O[C@H](CO)[C@@H](O)[C@H](O)[C@H]2O[C@H]2C[C@](C)(N)[C@H](O)[C@H](C)O2)Oc2ccc(cc2Cl)[C@H]1O,neuronal differentiation score,ReNCell VM [1]; library: Spectrum,inactive: 0
same,dopaminergic neuron differentiation score,ReNCell VM [2]; library: Spectrum,inactive: 0
O=S1(=O)c2cccc3cccc(c23)N1CCCN1CCN(c2ccc(F)cc2)CC1 [Fananserin],neuronal differentiation score,ReNCell VM [1]; library: Tocriscreen,inactive: 0
same,dopaminergic neuron differentiation score,ReNCell VM [2]; library: Tocriscreen,inactive: 0
CN1[C@@H]2CC[C@H]1CC(OC(=O)c1c[nH]c3ccccc13)C2 (stereo partly drawn) [3-Tropanyl-indole-3-carboxylate hydrochloride],neuronal differentiation score,ReNCell VM [1]; library: LOPAC,inactive: 0
same,dopaminergic neuron differentiation score,ReNCell VM [2]; library: LOPAC,inactive: 0
C#C[C@]1(OC(C)=O)CC[C@H]2[C@@H]3CCC4=CC(=NO)CC[C@@H]4[C@H]3CC[C@@]21CC (mixture of isomers) [Norgestimate],neuronal differentiation score,ReNCell VM [1]; library: Prestwick,inactive: 0
same,dopaminergic neuron differentiation score,ReNCell VM [2]; library: Prestwick,inactive: 0
CC(C)[C@H](N)C(=O)OCCOCn1cnc2c(=O)nc(N)[nH]c21 [Valacyclovir hydrochloride],neuronal differentiation score,ReNCell VM [1]; library: Prestwick,inactive: 0
same,dopaminergic neuron differentiation score,ReNCell VM [2]; library: Prestwick,inactive: 0
COc1ccc(C(=O)NCc2ccc(OCCN(C)C)cc2)cc1OC,neuronal differentiation score,ReNCell VM [1]; library: Spectrum,inactive: 0
same,dopaminergic neuron differentiation score,ReNCell VM [2]; library: Spectrum,inactive: 0
C[C@]12CCC(=O)C=C1CC[C@@H]1[C@@H]2CC[C@@]2(C)[C@H]1CC[C@]2(O)C(=O)CO [Cortexolone],neuronal differentiation score,ReNCell VM [1]; library: LOPAC,inactive: 0
same,dopaminergic neuron differentiation score,ReNCell VM [2]; library: LOPAC,inactive: 1
COC(=O)c1cc(O)c(=O)c2c(O)c(O)ccc2c1,neuronal differentiation score,ReNCell VM [1]; library: Spectrum,inactive: 0
same,dopaminergic neuron differentiation score,ReNCell VM [2]; library: Spectrum,inactive: 0
C[n+]1cc2c3c(ccc2c2ccc4cc5c(cc4c21)OCO5)OCO3 [Sanguinarine chloride],neuronal differentiation score,ReNCell VM [1]; library: LOPAC,inactive: 0
same,dopaminergic neuron differentiation score,ReNCell VM [2]; library: LOPAC,inactive: 0
NCC=CC(=O)O (stereo in doubt) [cis-4-Aminocrotonic acid],neuronal differentiation score,ReNCell VM [1]; library: LOPAC,active: 2
same,dopaminergic neuron differentiation score,ReNCell VM [2]; library: LOPAC,inactive: 0
CS(=O)(=O)c1ccc(C2=C(c3ccccc3)C(=O)OC2)cc1 [Rofecoxib],neuronal differentiation score,ReNCell VM [1]; library: Prestwick,inactive: 0
same,dopaminergic neuron differentiation score,ReNCell VM [2]; library: Prestwick,inactive: 0
COc1ncnc(NS(=O)(=O)c2ccc(N)cc2)c1OC,neuronal differentiation score,ReNCell VM [1]; library: Spectrum,inactive: 0
same,dopaminergic neuron differentiation score,ReNCell VM [2]; library: Spectrum,inactive: 0
CC(N)=O [Acetamide],neuronal differentiation score,ReNCell VM [1]; library: LOPAC,inactive: 0
same,dopaminergic neuron differentiation score,ReNCell VM [2]; library: LOPAC,inactive: 0
Cc1ccc(/C=C2\CNC/C(=C\c3ccc(C)cc3)C2=O)cc1,neuronal differentiation score,ReNCell VM [1]; library: Tocriscreen,inactive: 0
same,dopaminergic neuron differentiation score,ReNCell VM [2]; library: Tocriscreen,inactive: 0
C=C1c2c(Cl)ccc(O)c2C(=O)C2=C(O)[C@]3(O)C(=O)C(C(N)=O)=C(O)[C@@H](N(C)C)[C@@H]3[C@@H](O)[C@H]12.O=C(O)c1cc(S(=O)(=O)O)ccc1O,neuronal differentiation score,ReNCell VM [1]; library: Spectrum,active: 3
same,dopaminergic neuron differentiation score,ReNCell VM [2]; library: Spectrum,inactive: 0

# Exported with bars between the fields: entries from further up
compound | measurement | setting | value
COc1cccc(O)c1O | neuronal differentiation score | ReNCell VM [1]; library: Spectrum | inactive: 0
CC(C)[C@H](N)C(=O)OCCOCn1cnc2c(=O)nc(N)[nH]c21 [Valacyclovir hydrochloride] | neuronal differentiation score | ReNCell VM [1]; library: Prestwick | inactive: 0
COc1ccc(C(=O)NCc2ccc(OCCN(C)C)cc2)cc1OC | neuronal differentiation score | ReNCell VM [1]; library: Spectrum | inactive: 0
